Laboratory results reported in PubChem BioAssay AID540276 (National Center for Advancing Translational Sciences (NCATS), 2011).
Among all 300,000 compounds or so, about 5,400 (1.8%) were called active. Inconclusive results, whose numbers are uncertain, are shown with a selection of clear calls. Calls follow the shape of the full dose curve; tested in HEK293 cells. Where the call is inconclusive, the potency comes from a doubtful curve fit.
% is scaled to controls: 0 for no effect and ±100 for the full control effect; potency is read from the fitted curve at half-maximal effect.

Experiment: qHTS for inhibitors of binding or entry into cells for Marburg Virus
Conditions: Marburg virus pseudotyped entry inhibition, cell reporter; activity change, negative = inhibition: at 37.8 µM (top of the series) unless noted
In the case of O=C(NCc1ccccc1)c1csc2c1CCCCC2, the Potency is reported as inconclusive: 0.73 µM [activator, full curve]. For Cc1ccc(-c2noc(CSc3nnc(Cc4cccs4)n3-c3ccccc3)n2)cc1, the “activity change, negative = inhibition” value was inactive: 0.838%. In the case of CCOc1ccc2[nH]c(=O)c(CN(Cc3cccs3)C(CC)c3nnnn3C(C)(C)CC)cc2c1 (configuration not stated), the Potency is reported as inconclusive: 22.4 µM [inhibitor, partial curve, poor fit]. For Cc1cc2c(=O)n(C)c(SCC(=O)c3cc4ccccc4o3)nc2s1, the Potency was inconclusive: 10.3 µM [inhibitor, partial curve, poor fit]. In the case of COc1ccc(-c2[nH]nc3c2C(c2ccccc2OC(=O)N2CCOCC2)C(C#N)=C(N)O3)cc1 (configuration not stated), the Potency is reported as “inactive”. With COc1ccc(C(=O)NC2(C(F)(F)F)NC(=O)N(CCCc3ccccc3)C2=O)c(OC)c1OC (configuration not stated) the Potency was inconclusive: 10 µM [inhibitor, partial curve, poor fit]. With O=C(Nc1nccs1)c1cccc(S(=O)(=O)N2CCOCC2)c1 the “activity change, negative = inhibition” value was inactive: 24%. For COc1ccc(Oc2c(Cl)cnn(-c3ccccc3)c2=O)cc1, the Potency was active: 10 µM. In the case of Cc1ccc(CCNC(=O)c2ccc3c(=O)n(-c4ccccc4)c(=O)[nH]c3c2)cc1, the “activity change, negative = inhibition” value is reported as inactive: 11.6% [at 46.1 µM]. With COc1ccc(CCNC(=O)c2cccc(C(=O)NCCc3ccc(OC)cc3)n2)cc1 the Potency was inconclusive: 7.08 µM [inhibitor, full curve, poor fit]. In the case of O=C(C1CCC(CNc2nc(=S)[nH]c3ccccc23)CC1)N1CCN(c2ccccn2)CC1 (configuration not stated), the “activity change, negative = inhibition” value is reported as inactive: -26.3%. With O=C(O)C1NCCc2ccccc21 (configuration not stated) the “activity change, negative = inhibition” value was inactive: 0.622%. For CCN1CCc2c(sc(NC(=O)c3ccc(S(=O)(=O)N4CCOCC4)cc3)c2C(=O)OC)C1, the Potency was active: 10 µM. With O=C(CC(c1ccccc1)c1ccccc1)Nc1ccc2c(c1)OCCO2 the Potency was inconclusive: 25.1 µM [inhibitor, single point]. With COc1cccc(Sc2cc(N3CCOCC3)nc(-c3ccccc3)n2)c1 the Potency was inconclusive: 20 µM [inhibitor, single point]. With COc1ccc(NC(=S)Nc2cccc(Cl)c2Cl)cc1OC the “activity change, negative = inhibition” value was inactive: -12%. For Cc1ccc(/C=C2/C(=O)NC(=O)N(CCc3ccc(F)cc3)C2=O)s1, the Potency was inconclusive: 35.5 µM [activator, single point]. For Nc1ccc2nc(CCc3ccccc3)[nH]c2c1, the Potency was inconclusive: 7.31 µM [activator, partial curve]. In the case of CC(C)C(=O)NC(NC(=S)Nc1cccc2cccnc12)C(Cl)(Cl)Cl (configuration not stated), the “activity change, negative = inhibition” value is reported as inactive: -29.9%. In the case of CCN(CC)c1ccc(-c2nc(-c3ccco3)no2)cc1[N+](=O)[O-], the Potency is reported as inconclusive: 6.31 µM [inhibitor, single point]. For CCC(C)NC(=O)c1sc2nc(C)c(C(=O)Nc3ccc(C)cc3C)c(-c3ccccc3Cl)c2c1N (configuration not stated), the Potency was inconclusive: 35.5 µM [inhibitor, single point]. In the case of Nc1nnc(CCN2C(=O)CSC2=O)s1, the Potency is reported as inconclusive: 2.91 µM [activator, single point]. For CC(C)NS(=O)(=O)c1ccc(NC(=O)NC2CCCCC2)cc1, the Potency was inconclusive: 29.1 µM [activator, single point]. In the case of CC(C)c1ccc(S(=O)(=O)N2CCN(C(=O)c3ccc(N4CCCC4)c([N+](=O)[O-])c3)CC2)cc1, the Potency is reported as inconclusive: 35.5 µM [inhibitor, single point]. For Cc1ccc(-n2c(=O)c3c4c(sc3n(CC(=O)Nc3ccccc3C)c2=O)CCCCC4)cc1C, the Potency was inconclusive: 6.31 µM [activator, single point]. For O=C1C2=C(Nc3ccccc3SC2c2ccco2)c2ccccc21 (configuration not stated), the Potency was inconclusive: 35.5 µM [inhibitor, single point]. For NCC(c1ccc(Cl)cc1Cl)c1c[nH]c2ccccc12 (configuration not stated), the Potency was inconclusive: 6.31 µM [inhibitor, partial curve]. For O=C(N/N=C/C(Cl)=C\c1ccccc1)c1cnccn1, the “activity change, negative = inhibition” value was inactive: 1.04%. With C#CC[N+](C)(C)CCCCCCCC the “activity change, negative = inhibition” value was inactive: -9.41%. In the case of O=C1C(c2ccnc3ccccc23)=C(O)c2ccccc21, the Potency is reported as inconclusive: 3.16 µM [inhibitor, full curve, poor fit]. In the case of COC(=O)c1c(NC(=O)COC(=O)CCNS(=O)(=O)c2ccc(NC(C)=O)cc2)sc(C)c1C, the “activity change, negative = inhibition” value is reported as inactive: 1.74%. In the case of COc1cccc(/C=N/NC(=O)c2cc3cc([N+](=O)[O-])ccc3s2)c1O, the Potency is reported as active: 1.78 µM. In the case of CCCCC1CCC(C(=O)N2CC(=O)Nc3ccc(Cl)cc3C2c2ccc(F)cc2)CC1 (configuration not stated), the Potency is reported as inconclusive: 35.5 µM [inhibitor, single point]. For Cc1ccc(Cl)cc1NC(=S)N/N=C/c1cccc2ccccc12, the Potency was inconclusive: 1 µM [inhibitor, full curve, poor fit]. With Cc1ccc(C)n1/N=C1/NC(=O)CS1 the Potency was inconclusive: 15.8 µM [inhibitor, single point]. For O=C(O)c1ccc(/C=C2\COc3ccccc3C2=O)cc1, the Potency was inconclusive: 35.5 µM [inhibitor, single point]. With CCN1C(=O)C(Cc2nc3ccccc3c(=O)n2-c2ccc(OC)cc2)c2ccccc21 (configuration not stated) the “activity change, negative = inhibition” value was inactive: -3.81% [at 46.1 µM]. For O=C(c1cc(-c2ccncc2)nc2ccccc12)N1CCN(S(=O)(=O)/C=C/c2ccccc2)CC1, the Potency was inconclusive: 35.5 µM [inhibitor, single point]. For COc1ccccc1CNC(=O)c1cnn2c(C(F)F)cc(C)nc12, the Potency was inconclusive: 7.08 µM [inhibitor, partial curve, poor fit]. For CC(C)(C)NC(=O)CN(C(=O)Cn1nnc(-c2ccc(Cl)cc2)n1)C1CCN(Cc2ccccc2)CC1, the Potency was inconclusive: 5.62 µM [inhibitor, full curve]. With CN(C)c1nc(N(C)C)nc(N(C#N)CCOc2ccccc2)n1 the “activity change, negative = inhibition” value was inactive: -23.4%. With CN(C(=O)CSc1nc(C2CC2)n(-c2ccccc2)n1)C1CCS(=O)(=O)C1 (configuration not stated) the Potency was inconclusive: 11.2 µM [activator, partial curve, poor fit]. With COc1ccc(S(=O)(=O)N2CC(O)CC2C(=O)OCc2nc3sc(C)c(C)c3c(=O)[nH]2)cc1 (configuration not stated) the Potency was inconclusive: 1.26 µM [inhibitor, single point]. With Cc1ccc(Nc2nc3c(s2)CCC3)c(C)c1 the Potency was inconclusive: 29.1 µM [inhibitor, single point]. With c1ccc2c(c1)OCCOCCOCCOCCOc1ccccc1OCCOCCOCCO2 the Potency was inconclusive: 18.4 µM [inhibitor, partial curve, poor fit]. With CNC(=O)c1ccsc1NC(=O)C1CCCN1S(=O)(=O)c1cccs1 (configuration not stated) the “activity change, negative = inhibition” value was inactive: 3.79% [at 46.1 µM]. For C/C(=N\NC(=O)Cc1ccc(Cl)cc1)c1ccccc1O, the Potency was inconclusive: 35.5 µM [inhibitor, single point]. In the case of COc1ccc(NC(=S)NN2CCN(C)CC2)cc1OC, the “activity change, negative = inhibition” value is reported as inactive: 10.6%. For CCOC(=O)N1CCc2c(sc3c2C(=O)NC(c2ccccc2F)N3)C1 (configuration not stated), the Potency was inconclusive: 1 µM [inhibitor, full curve, poor fit]. With COc1ccc(C2C(C(=O)c3ccco3)=C(O)C(=O)N2CCCn2ccnc2)c(OC)c1 (configuration not stated) the Potency was inconclusive: 11.2 µM [activator, partial curve, poor fit]. In the case of O=C(Nc1ccc(C(F)(F)F)cc1)N1CCN(c2ccnc3cc(Cl)ccc23)CC1, the Potency is reported as inconclusive: 3.16 µM [inhibitor, single point]. With N#Cc1sc2nc3c(c(-c4ccco4)c2c1N)CCCC3 the Potency was inconclusive: 0.501 µM [inhibitor, full curve, poor fit]. For COc1ccc(NS(=O)(=O)c2cccc(C(=O)N3CCN(Cc4cc(OC)ccc4OC)CC3)c2)cc1, the “activity change, negative = inhibition” value was inactive: -8.7% [at 46.1 µM]. In the case of Cc1cc(OCC(=O)N2CCc3ccccc3C2)c(C)cc1Br, the Potency is reported as inconclusive: 11.2 µM [inhibitor, partial curve, poor fit]. With COc1ccc(NC(=O)N(CCc2ccccc2)Cc2cc3c(C)cc(C)cc3[nH]c2=O)cc1 the Potency was inconclusive: 6.51 µM [inhibitor, partial curve, poor fit]. For CCOC(=O)COc1ccccc1/C=N/Nc1nnc2c3ccccc3n(C)c2n1, the “activity change, negative = inhibition” value was inactive: -23.4% [at 46.1 µM]. In the case of Cc1ccc(NC(=O)CN2CCCC2)c2c1CC(C)(C)O2, the Potency is reported as inconclusive: 6.31 µM [inhibitor, single point]. With COc1ccc(C(=O)Nc2cc(C(C)=O)c(/C=C/N(C)C)oc2=O)cc1 the “activity change, negative = inhibition” value was inactive: 1.88%. With Cc1ccc(C(c2nnnn2C2CCCC2)N2CCN3CCCC3C2)cc1 (configuration not stated) the Potency was inconclusive: 16.4 µM [inhibitor, partial curve, poor fit]. With CCCOc1ccc(C(=O)NCC(c2cccs2)N(C)C)cc1 (configuration not stated) the Potency was inconclusive: 29.1 µM [activator, single point]. With CC(=O)c1cccc(OCC(O)CN2CC=C(c3ccccc3)CC2)c1 (configuration not stated) the “activity change, negative = inhibition” value was inactive: -24%. With O=C1C2C3C=CC(C4CC34)C2C(=O)N1/N=C/c1ccc(-c2ccccc2[N+](=O)[O-])o1 (configuration not stated) the Potency was inconclusive: 6.31 µM [activator, full curve, poor fit]. For CCCC(NCC(=O)Nc1cc(S(=O)(=O)N2CCOCC2)ccc1OC)c1ccccc1 (configuration not stated), the Potency was inconclusive: 2.82 µM [inhibitor, partial curve, poor fit]. For CCOC(=O)c1[nH]c2ccc(OC)cc2c1NC(=O)c1ccccc1C(=O)O, the Potency was inconclusive: 15.8 µM [activator, partial curve, poor fit]. For CC(=O)c1c(C)[nH]c(C(=O)N2CCN(C(=O)c3ccco3)CC2)c1C, the Potency was inconclusive: 6.31 µM [inhibitor, partial curve, poor fit]. With COc1cc2c(cc1OC)C(Nc1ccc(S(N)(=O)=O)cc1)=NC(C)(C)C2 the Potency was inconclusive: 1.26 µM [inhibitor, single point]. With NS(=O)(=O)C#Cc1ccccc1 the Potency was inconclusive: 16.4 µM [inhibitor, single point].
